Patent US11434492B2, “Ribosome-mediated incorporation of peptides and peptidomimetics” (Arizona Board of Regents on behalf of Arizona State …, priority 2015, dated 2022)
Some entries share one result that the patent states for a list of compounds. For at least one compound, name, drawing or mass did not settle the structure.

Assay: Fluorescence emission of dipeptidomimetics and of proteins containing them
Format: physicochemical
Conditions: free amino acids
From the text: Further, we prepared a modified DHFR having dipeptidomimetic 6 at position 10 at larger scale to investigate the fluorescence intensity of 6 in protein. The fluorescence emission spectra of wild-type DHFR and modified DHFR having 6 at position 10 were compared (FIG. 8) at 302 nm excitation wavelength.
Fluorescence Emission of an Artificial BFP Having Dipeptidomimetic 6. We designed fluorescent dipeptidomimetics 6-10 as stable analogues of GFP-chromophore. We anticipated their use to create artificial fluorescent proteins; to verify the same we replaced the chromophore of BFP with dipeptidomimetic 6 in order to prepare an artificial fluorescent protein. The fluorescence emission of 6 is near blue region of visible light spectrum (˜400 nm). Therefore, we compared the fluorescence emission intensity of artificial FP (artificial BFP 1) having 6 at position 66 with wild-type BFP, which has a fluorescence emission ˜450 nm. […] Wild-type and artificial BFP were prepared in a larger scale in a cell free translation system for fluorescence measurements.
A modified BFP construct, having a TAG codon in position 66 and a suppressor tRNACUA activated with 6 were used for the preparation of artificial BFP 1. […] As illustrated from FIG. 11, fluorescence intensity of artificial BFP 1 (emission maximum ˜375 nm) having 6 in position 66 is 20-fold greater than the wild-type BFP at similar protein concentrations. […]

COc1ccc(-c2oc(CN)nc2C(=O)O)cc1 [dipeptidomimetic 6]
λex: 296-302 nm

COc1ccc(-c2sc(CN)nc2C(=O)O)cc1 [dipeptidomimetic 7]
λex: 296-302 nm
